Data from publication PMC10882499.

The chains behind the UniProt entries cited, without tags or fusion partners.
UniProt P62136: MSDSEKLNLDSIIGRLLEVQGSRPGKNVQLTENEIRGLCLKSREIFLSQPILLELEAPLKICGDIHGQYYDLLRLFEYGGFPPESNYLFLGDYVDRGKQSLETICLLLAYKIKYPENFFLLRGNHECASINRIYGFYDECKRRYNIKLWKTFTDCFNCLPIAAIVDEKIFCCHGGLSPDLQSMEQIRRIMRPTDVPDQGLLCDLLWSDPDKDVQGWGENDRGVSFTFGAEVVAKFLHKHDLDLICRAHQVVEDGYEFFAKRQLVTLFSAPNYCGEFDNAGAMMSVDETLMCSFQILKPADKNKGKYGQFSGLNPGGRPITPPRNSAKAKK
UniProt P35573: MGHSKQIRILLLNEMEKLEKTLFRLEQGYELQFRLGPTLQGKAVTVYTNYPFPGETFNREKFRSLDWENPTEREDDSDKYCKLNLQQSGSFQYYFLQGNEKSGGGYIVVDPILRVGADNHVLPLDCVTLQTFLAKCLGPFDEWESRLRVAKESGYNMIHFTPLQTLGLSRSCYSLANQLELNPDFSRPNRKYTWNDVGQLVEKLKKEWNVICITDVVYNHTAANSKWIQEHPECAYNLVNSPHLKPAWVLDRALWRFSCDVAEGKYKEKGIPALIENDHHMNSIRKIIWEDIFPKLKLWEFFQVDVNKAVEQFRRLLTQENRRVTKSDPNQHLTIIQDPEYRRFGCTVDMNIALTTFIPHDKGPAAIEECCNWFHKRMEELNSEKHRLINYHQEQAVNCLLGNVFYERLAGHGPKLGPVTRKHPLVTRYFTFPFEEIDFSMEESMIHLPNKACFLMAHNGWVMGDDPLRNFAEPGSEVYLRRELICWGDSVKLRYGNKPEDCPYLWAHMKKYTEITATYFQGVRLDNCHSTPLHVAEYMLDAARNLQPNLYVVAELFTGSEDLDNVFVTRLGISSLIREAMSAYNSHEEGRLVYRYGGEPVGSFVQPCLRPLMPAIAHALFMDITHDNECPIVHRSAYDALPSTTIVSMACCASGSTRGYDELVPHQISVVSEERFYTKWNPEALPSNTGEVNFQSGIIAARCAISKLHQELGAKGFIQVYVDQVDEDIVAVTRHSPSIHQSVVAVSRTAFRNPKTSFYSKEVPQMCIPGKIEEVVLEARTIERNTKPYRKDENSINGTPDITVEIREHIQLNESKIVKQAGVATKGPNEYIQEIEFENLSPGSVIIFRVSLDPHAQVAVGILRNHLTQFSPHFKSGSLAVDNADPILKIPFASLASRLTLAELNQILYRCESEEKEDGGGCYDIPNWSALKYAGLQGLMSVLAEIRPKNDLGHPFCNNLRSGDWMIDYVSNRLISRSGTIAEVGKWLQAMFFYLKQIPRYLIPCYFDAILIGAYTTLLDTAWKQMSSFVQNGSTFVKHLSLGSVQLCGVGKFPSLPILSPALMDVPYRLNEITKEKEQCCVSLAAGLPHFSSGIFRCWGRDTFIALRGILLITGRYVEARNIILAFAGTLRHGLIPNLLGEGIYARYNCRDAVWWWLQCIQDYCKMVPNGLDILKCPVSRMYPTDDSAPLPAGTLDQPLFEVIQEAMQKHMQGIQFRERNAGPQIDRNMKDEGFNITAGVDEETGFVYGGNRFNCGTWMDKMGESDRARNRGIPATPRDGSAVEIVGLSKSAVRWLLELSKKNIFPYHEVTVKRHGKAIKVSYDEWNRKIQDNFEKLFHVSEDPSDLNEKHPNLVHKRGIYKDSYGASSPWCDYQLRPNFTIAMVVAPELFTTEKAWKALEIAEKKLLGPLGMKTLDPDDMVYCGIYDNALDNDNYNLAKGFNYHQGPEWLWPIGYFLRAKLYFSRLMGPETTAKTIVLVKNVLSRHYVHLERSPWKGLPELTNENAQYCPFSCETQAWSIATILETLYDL
UniProt O94822: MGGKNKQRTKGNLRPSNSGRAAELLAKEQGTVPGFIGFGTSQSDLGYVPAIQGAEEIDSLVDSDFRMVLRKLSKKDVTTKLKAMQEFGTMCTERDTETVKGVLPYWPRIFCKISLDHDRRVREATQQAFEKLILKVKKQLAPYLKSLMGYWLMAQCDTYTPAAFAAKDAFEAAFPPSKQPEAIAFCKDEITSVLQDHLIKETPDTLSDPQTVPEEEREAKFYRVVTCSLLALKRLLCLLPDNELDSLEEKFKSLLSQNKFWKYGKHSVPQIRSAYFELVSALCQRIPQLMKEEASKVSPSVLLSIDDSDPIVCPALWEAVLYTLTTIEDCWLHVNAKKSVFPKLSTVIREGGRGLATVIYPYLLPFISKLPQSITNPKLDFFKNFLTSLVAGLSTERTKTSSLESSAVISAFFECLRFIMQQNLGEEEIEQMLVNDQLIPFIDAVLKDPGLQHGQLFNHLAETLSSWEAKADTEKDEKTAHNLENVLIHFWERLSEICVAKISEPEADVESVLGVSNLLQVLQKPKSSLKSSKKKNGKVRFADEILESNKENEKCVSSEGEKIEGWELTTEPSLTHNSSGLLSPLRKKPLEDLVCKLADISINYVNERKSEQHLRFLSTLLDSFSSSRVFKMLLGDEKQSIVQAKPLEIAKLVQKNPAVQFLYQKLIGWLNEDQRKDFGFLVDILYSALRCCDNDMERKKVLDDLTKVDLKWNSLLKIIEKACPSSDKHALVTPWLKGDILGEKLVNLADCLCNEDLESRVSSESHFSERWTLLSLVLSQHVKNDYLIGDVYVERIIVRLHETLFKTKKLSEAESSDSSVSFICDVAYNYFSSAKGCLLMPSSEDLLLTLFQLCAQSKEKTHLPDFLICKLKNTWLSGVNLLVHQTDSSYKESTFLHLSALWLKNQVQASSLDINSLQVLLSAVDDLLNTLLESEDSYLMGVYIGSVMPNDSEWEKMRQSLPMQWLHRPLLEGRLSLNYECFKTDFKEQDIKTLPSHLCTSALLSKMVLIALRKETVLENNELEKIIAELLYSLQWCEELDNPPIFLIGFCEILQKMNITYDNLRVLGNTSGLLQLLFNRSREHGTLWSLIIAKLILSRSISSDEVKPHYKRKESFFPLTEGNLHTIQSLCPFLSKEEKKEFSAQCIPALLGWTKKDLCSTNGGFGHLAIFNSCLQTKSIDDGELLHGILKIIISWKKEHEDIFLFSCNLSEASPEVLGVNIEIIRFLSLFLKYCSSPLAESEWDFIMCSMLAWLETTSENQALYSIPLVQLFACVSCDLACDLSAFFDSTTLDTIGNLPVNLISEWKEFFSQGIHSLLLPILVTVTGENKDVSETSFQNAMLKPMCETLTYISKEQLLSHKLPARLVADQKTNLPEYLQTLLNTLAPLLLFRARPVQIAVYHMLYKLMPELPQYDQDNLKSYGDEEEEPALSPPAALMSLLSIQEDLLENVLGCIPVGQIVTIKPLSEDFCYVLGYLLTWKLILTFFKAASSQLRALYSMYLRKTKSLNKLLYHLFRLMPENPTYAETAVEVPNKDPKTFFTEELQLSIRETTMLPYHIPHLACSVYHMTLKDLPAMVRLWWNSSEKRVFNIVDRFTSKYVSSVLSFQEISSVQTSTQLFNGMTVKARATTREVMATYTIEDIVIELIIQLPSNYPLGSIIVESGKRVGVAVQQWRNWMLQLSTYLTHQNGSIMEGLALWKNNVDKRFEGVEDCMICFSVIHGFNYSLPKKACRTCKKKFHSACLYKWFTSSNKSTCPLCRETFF
UniProt P36873: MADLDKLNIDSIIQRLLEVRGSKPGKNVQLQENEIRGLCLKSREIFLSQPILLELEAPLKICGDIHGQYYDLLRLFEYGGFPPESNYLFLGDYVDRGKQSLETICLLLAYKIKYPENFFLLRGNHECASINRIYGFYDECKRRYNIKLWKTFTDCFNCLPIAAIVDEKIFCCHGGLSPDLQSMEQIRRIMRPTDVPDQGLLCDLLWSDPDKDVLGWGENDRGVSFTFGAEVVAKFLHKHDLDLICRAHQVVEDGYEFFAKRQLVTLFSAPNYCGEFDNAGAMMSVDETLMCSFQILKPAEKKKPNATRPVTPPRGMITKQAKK
UniProt Q9P2K8: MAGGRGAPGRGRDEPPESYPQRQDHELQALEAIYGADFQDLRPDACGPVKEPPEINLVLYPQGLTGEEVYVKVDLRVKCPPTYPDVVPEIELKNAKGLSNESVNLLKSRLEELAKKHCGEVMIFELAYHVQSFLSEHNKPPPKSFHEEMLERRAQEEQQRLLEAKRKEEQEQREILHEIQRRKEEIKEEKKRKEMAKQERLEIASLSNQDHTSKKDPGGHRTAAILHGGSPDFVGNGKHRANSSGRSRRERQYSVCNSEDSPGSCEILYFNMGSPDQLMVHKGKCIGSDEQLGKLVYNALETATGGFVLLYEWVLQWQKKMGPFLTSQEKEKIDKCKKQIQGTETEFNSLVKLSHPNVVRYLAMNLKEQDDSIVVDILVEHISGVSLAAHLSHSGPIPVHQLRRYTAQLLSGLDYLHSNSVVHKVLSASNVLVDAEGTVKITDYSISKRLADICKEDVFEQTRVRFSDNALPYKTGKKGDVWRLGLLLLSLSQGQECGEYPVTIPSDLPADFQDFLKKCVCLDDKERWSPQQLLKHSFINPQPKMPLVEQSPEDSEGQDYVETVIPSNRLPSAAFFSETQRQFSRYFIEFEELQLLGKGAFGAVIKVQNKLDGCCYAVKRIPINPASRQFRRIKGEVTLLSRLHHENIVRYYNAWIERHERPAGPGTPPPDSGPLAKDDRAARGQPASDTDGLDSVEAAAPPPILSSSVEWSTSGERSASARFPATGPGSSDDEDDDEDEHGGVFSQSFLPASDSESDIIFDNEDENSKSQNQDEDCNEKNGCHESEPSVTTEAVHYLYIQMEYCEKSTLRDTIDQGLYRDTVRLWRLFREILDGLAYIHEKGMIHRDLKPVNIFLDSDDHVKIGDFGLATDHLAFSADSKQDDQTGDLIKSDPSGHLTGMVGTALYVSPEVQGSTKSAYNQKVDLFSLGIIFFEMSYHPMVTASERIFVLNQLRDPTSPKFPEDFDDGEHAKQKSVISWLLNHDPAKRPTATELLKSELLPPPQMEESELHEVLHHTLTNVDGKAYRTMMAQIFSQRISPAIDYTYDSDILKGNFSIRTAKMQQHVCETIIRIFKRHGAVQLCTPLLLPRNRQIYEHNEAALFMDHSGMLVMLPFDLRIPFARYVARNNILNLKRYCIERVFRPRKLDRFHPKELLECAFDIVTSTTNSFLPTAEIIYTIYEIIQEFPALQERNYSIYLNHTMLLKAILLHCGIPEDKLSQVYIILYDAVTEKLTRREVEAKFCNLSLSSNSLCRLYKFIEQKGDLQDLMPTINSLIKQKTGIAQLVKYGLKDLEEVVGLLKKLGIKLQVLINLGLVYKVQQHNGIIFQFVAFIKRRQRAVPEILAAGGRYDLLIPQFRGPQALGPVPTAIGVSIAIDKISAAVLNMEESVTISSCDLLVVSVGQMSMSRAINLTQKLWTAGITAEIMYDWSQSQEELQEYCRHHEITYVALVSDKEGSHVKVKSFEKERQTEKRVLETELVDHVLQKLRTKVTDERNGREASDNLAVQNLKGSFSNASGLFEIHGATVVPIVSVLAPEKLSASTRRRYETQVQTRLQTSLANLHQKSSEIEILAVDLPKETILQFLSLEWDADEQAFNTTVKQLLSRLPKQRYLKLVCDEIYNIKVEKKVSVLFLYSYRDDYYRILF
UniProt P62140: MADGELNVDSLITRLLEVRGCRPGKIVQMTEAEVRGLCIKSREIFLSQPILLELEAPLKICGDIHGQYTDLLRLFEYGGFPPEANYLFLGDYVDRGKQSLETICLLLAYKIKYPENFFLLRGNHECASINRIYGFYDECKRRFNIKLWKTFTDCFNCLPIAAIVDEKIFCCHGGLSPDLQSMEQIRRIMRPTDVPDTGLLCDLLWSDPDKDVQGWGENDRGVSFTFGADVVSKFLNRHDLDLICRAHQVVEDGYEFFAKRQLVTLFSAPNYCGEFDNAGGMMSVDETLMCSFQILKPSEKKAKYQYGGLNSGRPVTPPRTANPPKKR

T1: mVenus-PDP1
T1 sequence: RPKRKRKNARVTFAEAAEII


How the values were obtained:
mVenus-PP1α = mVenus-PP1α (UniProt P62136); test: affinity purification with mass spectrometry; HeLa Kyoto FlpInTrex mVenus-PP1α or mVenus-Ctrl cells induced with doxycycline 24 h, medium with 50 μM PDP-Nal, 50 μM PDPm-Nal or DMSO for 5 min at 37 °C, lysed; Co-IP with GFP-Trap beads, label-free quantitative mass spectrometry
mVenus-PDP1 = target: T1, mVenus-PDP1; test: affinity purification with mass spectrometry; HeLa Kyoto cells transiently transfected with mVenus-PDP1 or mVenus-PDP1m, lysed after 24 h; IP of mVenus with anti-GFP beads, tryptic digestion, LC-MS/MS with label-free quantification; compared with mVenus-control pulldowns

Row | binding (mVenus-PP1α) | binding (mVenus-PDP1) | Molecule
1 | binds |  | glycogen debranching enzyme (from UniProt P35573 1-1532)
2 | binds |  | E3 ubiquitin-protein ligase listerin (from UniProt O94822 1-1766) (enzyme)
3 |  | binds | PP1γ (from UniProt P36873 1-323) (enzyme)
4 |  | binds | PP1α (from UniProt P62136 1-330) (enzyme)
5 | binds |  | eIF-2-alpha kinase GCN2 (from UniProt Q9P2K8 1-1649) (enzyme)
6 |  | binds | PP1β (from UniProt P62140 1-327) (enzyme)
7 | binds |  | nucleoplasmin-3 (protein, UniProt O75607 1-178) MAAGTAAALAFLSQESRTRAGGVGGLRVPAPVTMDSFFFGCELSGHTRSFTFKVEEEDDAEHVLALTMLCLTEGAKDECNVVEVVARNHDHQEIAVPVANLKLSCQPMLSLDDFQLQPPVTFRLKSGSGPVRITGRHQIVTMSNDVSEEESEEEEEDSDEEEVELCPILPAKKQGGRP

These are yes or no findings as the source states them, for the method shown. Binding seen in cells or lysates may run through a third protein. Here binding means that the protein was enriched with, or labelled near, the bait; the list need not be complete.
